Source: PMC10970924 (Life, 2024)

Tested on: chicken erythrocyte genomic DNA
Test: Spectrophotometry of complexation with genomic DNA

Q: With `COc1cccc2c1C(=O)c1c(O)c3c(c(O)c1C2=O)CC(O)(C(=O)CO)CC3OC1CC(NC(=O)/C=C/c2cnc(C)c3c2COC(C)(C)O3)C(O)C(C)O1` (stereo not drawn) [DOX-2, (E)-N-(3-hydroxy-2-methyl-6-((3,5,12-trihydroxy-3-(2-hydroxyacetyl)-10-methoxy-6,11-dioxo-1,2,3,4,6,11-hexahydrotetracen-1-yl)oxy)tetrahydro-2H-pyran-4-yl)-3-(2,2,8-trimethyl-4H-[1,3]dioxino[4,5-c]pyridin-5-yl)acrylamide] as the molecule, how does the “Absorption Maximum” value (DNA concentration 15 µg/mL) read?
A: Its value is 490 nm.

Q: And the “Absorption Maximum” value (DNA concentration 20 µg/mL)?
A: Its value is 490 nm.

Q: What about the “Absorption Maximum” value (DNA concentration 30 µg/mL) of the same molecule?
A: Its value is 490 nm.

Q: And the “Absorption Maximum” value (DNA concentration 60 µg/mL)?
A: The value was 491 nm.

Q: And the “Absorption Maximum without DNA” value?
A: The value was 490 nm.

Q: What does the source list for `COc1cccc2c1C(=O)c1c(O)c3c(c(O)c1C2=O)CC(O)(C(=O)CO)CC3OC1CC(NC(=O)c2cnc(C)c3c2COC(C)(C)O3)C(O)C(C)O1` (stereo not drawn) [DOX-1, N-(3-hydroxy-2-methyl-6-((3,5,12-trihydroxy-3-(2-hydroxyacetyl)-10-methoxy-6,11-dioxo-1,2,3,4,6,11-hexahydrotetracen-1-yl)oxy)tetrahydro-2H-pyran-4-yl)-2,2,8-trimethyl-4H-[1,3]dioxino[4,5-c]pyridine-5-carboxamide]?
A: Absorption Maximum (DNA concentration 15 µg/mL): 490 nm; Absorption Maximum (DNA concentration 20 µg/mL): 491 nm; Absorption Maximum (DNA concentration 30 µg/mL): 488 nm; Absorption Maximum (DNA concentration 60 µg/mL): 490 nm; Absorption Maximum without DNA: 492 nm

Q: For `COc1cccc2c1C(=O)c1c(O)c3c(c(O)c1C2=O)C[C@@](O)(C(=O)CO)C[C@@H]3O[C@H]1C[C@H](N)[C@H](O)[C@H](C)O1` [DOX, Doxorubicin, reference compound], which “Absorption Maximum” value (DNA concentration 15 µg/mL) is on record?
A: Its value is 495 nm.

Q: What about the “Absorption Maximum” value (DNA concentration 20 µg/mL) of the same molecule?
A: Its value is 495 nm.

Q: What about the “Absorption Maximum” value (DNA concentration 30 µg/mL) of the same molecule?
A: The value was 501 nm.

Q: What about the “Absorption Maximum” value (DNA concentration 60 µg/mL) of the same molecule?
A: Its value is 506 nm.

Q: And the “Absorption Maximum without DNA” value?
A: Its value is 481 nm.
